Data published in patent US20080015137A1.
No constants are given. Whether binding was seen depends on the method and setting. Binding seen in cells or lysates may run through a third protein. Some entries that bind do so weakly or less than the wild type. Sequences can lack the tags named with a protein.

Assays:
[1] = biological target: Karyopherin beta2 (Kapβ2), full length, wild type (human) (UniProt Q92973); test: GST pull-down (FIG. 14)
Kapβ2 W460A/W730A = biological target: T1, Kapβ2 W460A/W730A; test: pull-down: Kapβ2 mutant added to immobilized GST-NLS, SDS-PAGE, stained gel
T1 sequence: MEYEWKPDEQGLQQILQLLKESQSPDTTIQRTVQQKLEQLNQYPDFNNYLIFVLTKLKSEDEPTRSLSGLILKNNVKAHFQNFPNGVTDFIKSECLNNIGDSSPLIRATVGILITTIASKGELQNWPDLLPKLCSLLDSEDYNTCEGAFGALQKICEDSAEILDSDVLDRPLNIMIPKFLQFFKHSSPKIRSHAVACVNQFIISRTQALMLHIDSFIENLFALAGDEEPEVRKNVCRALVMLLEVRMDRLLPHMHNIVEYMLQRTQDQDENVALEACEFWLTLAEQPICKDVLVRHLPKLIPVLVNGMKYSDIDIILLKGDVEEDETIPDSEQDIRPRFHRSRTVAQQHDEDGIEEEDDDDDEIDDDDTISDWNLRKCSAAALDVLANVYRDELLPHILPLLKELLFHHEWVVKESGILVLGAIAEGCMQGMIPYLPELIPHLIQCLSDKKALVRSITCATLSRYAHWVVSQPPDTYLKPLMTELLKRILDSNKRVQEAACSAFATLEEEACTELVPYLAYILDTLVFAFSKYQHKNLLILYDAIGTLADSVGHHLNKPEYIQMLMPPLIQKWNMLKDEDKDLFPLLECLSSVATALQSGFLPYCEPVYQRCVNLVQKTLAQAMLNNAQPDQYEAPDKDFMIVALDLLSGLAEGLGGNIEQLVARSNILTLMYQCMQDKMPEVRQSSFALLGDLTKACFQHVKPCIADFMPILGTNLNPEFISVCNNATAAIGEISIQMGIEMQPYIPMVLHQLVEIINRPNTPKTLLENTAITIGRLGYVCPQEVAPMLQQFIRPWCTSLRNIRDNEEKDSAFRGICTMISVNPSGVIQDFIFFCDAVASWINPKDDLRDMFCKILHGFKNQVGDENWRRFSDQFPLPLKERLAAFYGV

[2] = biological target: Karyopherin beta2 (Kapβ2), full length, wild type (human) (UniProt Q92973); test: summary table of the pull-down assays of Kapβ2 with immobilized GST fusions
[3] = biological target: Karyopherin beta2 (Kapβ2), full length, wild type (human) (UniProt Q92973); test: pull-down: Kapβ2 added to GST fusion immobilized on glutathione sepharose, SDS-PAGE, Coomassie Blue
[4] = biological target: Karyopherin beta2 (Kapβ2), full length, wild type (human) (UniProt Q92973); test: GST pull-down, Coomassie-stained gel (FIG. 12A)
[5] = biological target: Karyopherin beta2 (Kapβ2), full length, wild type (human) (UniProt Q92973); test: GST pull-down (FIG. 6E)

Measured: binding

ERPAQNEKRKEKNIKRGGNRFEPYANPTKR (peptide, human, UniProt P52272 41-70, looked up, not shown: a dimerising Fc or GST) [GST-hnRNP M-NLS (GST-fusion of hnRNP M residues 41-70)]
not listed: [5]
binds: all other assays above

B1: GST-HCC1, full length (protein, human, UniProt Q14498 2-530, looked up, not shown: a dimerising Fc or GST)
chain: ADDIDIEAMLEAPYKKDENKLSSANGHEERSKKRKKSKSRSRSHERKRSKSKERKRSRDRERKKSKSRERKRSRSKERRRSRSRSRDRRFRGRYRSPYSGPKFNSAIRGKIGLPHSIKLSRRRSRSKSPFRKDKSPVREPIDNLTPEERDARTVFCMQLAARIRPRDLEEFFSTVGKVRDVRMISDRNSRRSKGIAYVEFVDVSSVPLAIGLTGQRVLGVPIIVQASQAEKNRAAAMANNLQKGSAGPMRLYVGSLHFNITEDMLRGIFEPFGRIESIQLMMDSETGRSKGYGFITFSDSECAKKALEQLNGFELAGRPMKVGHVTERTDASSASSFLDSDELERTGIDLGTTGRLQLMARLAEGTGLQIPPAAQQALQMSGSLAFGAVAEFSFVIDLQTRLSQQTEASALAAAASVQPLATQCFQLSNMFNPQTEEEVGWDTEIKDDVIEECNKHGGVIHIYVDKNSAQGNVYVKCPSIAAAIAAVNALHGRWFAGKMITAAYVPLPTYHNLFPDSMTATQLLVPSRR
binds: [5]
